The full ranking holds about 33,000 sequences; the median of “E-score (-0.5 to 0.5)” is about -0.0059, and the highest 2% start at about 0.26. The list shows a part of the results.
Molecular target: T1, Cin5 (UniProt P40917)
T1 sequence: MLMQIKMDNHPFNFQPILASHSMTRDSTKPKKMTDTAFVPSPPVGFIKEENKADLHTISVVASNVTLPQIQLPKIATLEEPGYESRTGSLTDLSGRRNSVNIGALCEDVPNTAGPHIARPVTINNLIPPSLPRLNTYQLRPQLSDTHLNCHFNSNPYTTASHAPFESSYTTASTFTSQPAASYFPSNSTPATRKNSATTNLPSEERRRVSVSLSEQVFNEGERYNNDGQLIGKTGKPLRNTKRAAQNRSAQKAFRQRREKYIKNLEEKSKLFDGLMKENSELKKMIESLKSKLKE
Test: PBM E-score (8-mer binding enrichment) (E-score (-0.5 to 0.5)); higher = stronger / more preferred TF binding
Settings: protein concentration: 100 nM; construct: GST-full length
Protocol: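 Universal 'all 10-mer' protein binding microarrays (Agilent AMADID 015681) probed with GST-tagged S. cerevisiae TFs (full-length or DBD) made by in vitro transcription/translation (PURExpress), about 100-200 nM. Bound TF was detected with fluorescent anti-GST. Each ungapped 8-mer (which stands for itself and its reverse complement) is scored by the PBM enrichment score (E-score), a modified Wilcoxon-Mann-Whitney statistic from -0.5 to +0.5, computed with the Universal PBM Analysis Suite. Scale: above 0.35 generally sequence-specific binding.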

Sequence	PBM E-score
AGCTTACC	0.226
CCATCATA	0.05
GAGGTGAC	0.0854
GCTGAAAA	0.0942
AACACCAC	0.033
AGTAGTCA	0.0207
CGGATCCA	0.165
GAAGGCTA	-0.0461
CTATGAAC	-0.0501
CTCTTTTC	0.023
CTGAGAAA	-0.00015
GACGTGTA	-0.148
AACACGAA	0.191
AAGATGCG	0.106
CTCCCGGA	-0.0612
AGGTTTAC	-0.0651
AGAGGACT	-0.247
GGGTATCA	-0.0392
ATCCGATA	0.0454
AAGTACAA	0.217
CACGACAA	-0.00342
CTCCCCTC	-0.0793
TCGATCCA	-0.0512
ATGCGCGA	-0.094
ATCACAAG	0.0853

Sequence	PBM E-score
ACTGGAGA	-0.0664
ATGCTTGA	0.133
ATCAGCAA	0.0322
AAAGACCC	-0.155
TAATTAGA	0.146
AATGCCGG	-0.012
ACACGTTC	-0.0241
TGACATCA	0.356
AGCCATTA	0.119
ACCATCGA	0.0206
GTCAGCAA	0.267
AAGAAACC	0.138
TAAGCGAA	0.275
AATCTTGC	0.0822
ACATTTGA	0.144
ACGGCCGG	-0.108
CATAGGCC	-0.0986
GTTGCAAC	0.0287
CTACATAA	0.0697
CTAAAGTC	-0.259
TATAACCA	0.189
ACTATTAC	0.224
CCTGGAGC	-0.184
AAGAGCTA	0.0249
CTTGGCGA	-0.247

Seven entries picked at random from those above, as already listed:
Sequence	PBM E-score
TATAACCA	0.189
GTCAGCAA	0.267
ACGGCCGG	-0.108
ATGCTTGA	0.133
TAAGCGAA	0.275
ATCAGCAA	0.0322
CTACATAA	0.0697

(cont.)

Sequence	PBM E-score
CAAGGATG	-0.00238
AGACCAAC	0.0138
CCAACCTC	0.0593
GGCTCAAA	-0.161
ACTCGCCC	-0.144
AAAAATAT	0.208
GCGATCAC	-0.0212
CGTGAACG	-0.236
CCATTCCC	-0.11
ACGCTATG	-0.00946
CTAGGATA	-0.1
CGTTCACC	-0.0464
AAAACGTA	0.0895
ATTGATTG	0.186
GCTTTAAC	0.0858
ATAAATTG	0.272
AGTATCTC	0.0416
AAAACATA	0.146
GACGGATC	0.0137
AATACGTG	-0.0461
GACTTTGC	0.0511
CCCGCGCG	0.138
GAGAGAAA	-0.00971
GCCAGCTA	-0.0147
GGCCGGAC	-0.26

3 entries from above in another layout:

| Sequence | PBM E-score |
| --- | --- |
| CTACATAA | 0.0697 |
| CTAAAGTC | -0.259 |
| ACTCGCCC | -0.144 |

Additional entries follow:

Sequence	PBM E-score
CGGGTGAA	0.0438
ATCCAGGG	-0.214
CGTCGCCA	-0.0589
CTGCCTAC	0.061
AGTCCGGG	-0.17
GCTATTCA	0.092
GGACCCAA	-0.0926
TAACCGTA	0.0558
CTTTATGC	-0.0141
GCGTTAAC	0.00491
ACATCGAG	-0.0343
TTGTAAAA	0.109
ACAGAAAT	0.0785
TCGAAGAA	0.014
CCCAGTAA	0.0641
ACCTGTAA	0.04
AGGCTCAT	-0.224
ACCAGAAA	0.0106
CCCTCCAA	-0.204
AAGTGCAT	0.072
ACTATCTG	-0.038
AAGTTAGA	0.108
ATTCGCAG	0.121
ACAAGGAG	0.0212
ACAAGATG	0.116

Sequence	PBM E-score
CGAGATAG	-0.0704
CTTAAAAG	-0.203
TAATCCGA	0.0733
CCATACAC	0.092
AGCGCGAG	-0.0755
AAGCCACG	-0.0147
AAATTGGC	0.0912
AACGGCTG	-0.193
ATCACGTA	0.269
GCCACACC	-0.0231
ATTTGTAG	0.136
GCACGTCA	-0.112
CCTACAAC	0.11
CATGTTAG	-0.044
ATGATTTG	0.123
AGCCGGCA	0.0255
AGAGCGAT	-0.158
ATCTCAGG	0.0461
AGCCAACA	-0.11
ACCAAAGC	-0.0522
AGGGTGGG	0.0776
ACGCGTGC	0.0519
CACTTTGA	-0.212
CGAATTTA	0.0677
GCAATGTA	0.0867

Sequence	PBM E-score
ACCCCTGC	-0.13
TAGGCATA	-0.0591
GCATTGGC	-0.238
AAGCGCCT	-0.12
GAGGGCCC	-0.254
TATTATGA	0.184
GCCTGCCC	-0.241
AACCGCGG	0.214
CTGAGTTA	-0.0462
ATTGGATC	0.0862
CGGGAGGC	-0.237
ACTAATCC	0.125
TGGTACAA	0.14
CACATCGA	-0.0812
CAAAGTTG	0.02
AAGAACAT	0.217
AAGGGGAT	0.169
ATATTCGC	0.2
GTCCGAGA	0.0782
TCCCCGCA	0.00162
CGGCTAGC	-0.121
GGCCAAAC	-0.112
CATTGGCA	0.00886
AGTCTTGG	-0.0595
AACTCACT	-0.14

Sequence	PBM E-score
CAGATAGG	-0.0377
AGCGATAC	-0.0731
TCATGCAA	0.24
CTGAATAC	0.108
CAGAAAAG	0.0975
AAATCTCC	-0.258
AAGTCGAT	0.0524
AATCCAGC	0.00756
CTGGAGAA	-0.202
CAATTCGG	0.108
GATACCCC	-0.0613
ACTCATCT	0.156
AGCCCCAA	0.0821
CCTATGTC	-0.0666
CCACACTA	0.149
GAAATCGC	0.0867
ACGCGCAG	-0.124
AACTGTTC	0.191
CCCCCTAG	-0.464
GTGGACTA	0.0765
GGCAGGCA	-0.12
CCTCAAGC	-0.173
AAGCGGTG	-0.236
CAAATAAA	0.0487
GTGCGGGA	-0.0202

Sequence	PBM E-score
ACGCGCCT	0.0749
CCCATGAC	-0.0231
AAGGTATT	0.109
AAAACGTT	0.0816
ACCGGATA	-0.052
CAATAGTC	-0.0103
CTAATGAG	-0.0617
ATGTTACC	0.103
ATAGCACG	-0.212
CCGCACGA	-0.0814
AGTGCGCG	-0.0857
GTGATCAA	0.118
AGCTCATA	0.0937
ACACAACT	0.113
AGCATTGA	0.0105
AGGGAGCA	-0.34
TTCGTAAA	0.0623
CTGTAGGA	-0.0637
AGAGCCAC	-0.176
AAGCACTT	0.0388
AAGAGGCG	-0.126
GCCTAGCC	-0.133
CGTGACCA	-0.0204
GCCCGTGA	-0.223
GCGAGCCC	-0.163

Sequence	PBM E-score
AATAGTCG	0.0892
CGGTAACA	0.161
CCTAGATA	-0.14
CCCTGGAC	-0.0926
GCCTATTA	0.177
CACGACAG	0.00784
CATGAACA	0.0732
AATTCTCC	0.115
GCCACCCC	-0.253
ACAGACGT	-0.127
TGAAGTCA	0.0574
CATTGATA	0.146
CACATATA	0.145
AGCCCGTC	-0.305
AAAACGAA	0.101
CGGATGCC	0.00719
AATATTGG	0.154
AATGGTTG	0.0822
AGTATGAG	0.184
